About 5,500 (1.4%) of roughly 400,000 compounds were called active. Inconclusive means that the source gave no clear call. Such entries were picked first, then a sample of the others. Calls follow the shape of the dose curve; as a rule, active = well fitted cell-killing curve with a large enough effect; inconclusive = small, poorly fitted or top-dose-only effect, or effect the other way; inactive = flat fitted curve, though single readings scatter. A potency beside an inconclusive call is a rough fit, not a confirmed value.
Test: qHTS assay for MDR1-selective chemotherapeutics: Primary screen using the parental adenocarcinoma cell KB-3-1; also: nearly all actives have a fitted effect of over 60% in size
Conditions: KB-3-1 viability, CellTiter-Glo ATP luminescence, 72 h; series mostly up to 46.1 µM
Procedure, shortened: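 Parental KB-3-1 adenocarcinoma cells in phenol-red-free DMEM with 10% FBS were pin-treated with compounds at several concentrations, incubated 72 h at 37 °C, and viability read by CellTiter-Glo luminescence; concentration-effect curves were fitted after normalization.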
Potency is read from the fitted curve at half-maximal effect.

| SMILES | Potency |
| --- | --- |
| COc1ccc(C(=O)CSc2nnc(CNc3ccc(C)cc3C)n2Cc2ccco2)cc1 | inconclusive: 20.6 µM [cytotoxic, single point] |
| Cn1c(=O)c2c(SCC(=O)NCc3ccc(F)cc3)nc(-c3ccccc3Cl)nc2n(C)c1=O | inactive |
| Cc1ccc(NC(=O)CSc2nc3ccc(NC(=O)COc4ccc(C)cc4)cc3s2)cc1 | inconclusive: 18.4 µM [cytotoxic, partial curve, poor fit] |
| Cc1ccc(NC(=O)c2c(O)c3ccccc3n(C)c2=O)nc1 | inconclusive: 23.1 µM [cytotoxic, single point] |
| Cc1ccc(-n2cc(CN3CCN(Cc4nccn4C)CC3)c(-c3cccc(C)c3)n2)cc1 | inconclusive: 29.1 µM [cytotoxic, single point] |
| O=C(Cn1nc(CNc2ccc(Cl)cc2)[n+]2c1CCCCC2)c1ccc(Br)cc1 | inconclusive: 29.1 µM [cytotoxic, single point] |
| O=C(Nc1ccccc1)c1cn(CCBr)cn1 | inactive |
| Cc1ccc(-c2nn(CCC(=O)O)cc2/C=C\C(=O)c2ccc(Br)cc2)cc1 | inconclusive: 16.4 µM [cytotoxic, single point] |
| CCCOC(=O)/C=C/c1c(C)[nH]c(=O)[nH]c1=O | inconclusive: 29.1 µM [cytotoxic, single point] |
| O=S(=O)(c1ccc(NC(=S)N/N=C/c2ccc(O)c(O)c2)cc1)N1CCOCC1 | inactive |
| O=C(/C(N=Nc1cccc(C(F)(F)F)c1)=C(/O)c1cccs1)C(F)(F)F | inconclusive: 25.9 µM [cytotoxic, single point] |
| O=C(Nc1nnc(C2CC(=O)N(c3ccc(Cl)cc3)C2)s1)c1ccco1 (stereo not drawn) | inactive |
| Cc1cc(OCC(=O)OCC(=O)N(C)Cc2ccccc2C)ccc1Cl | inconclusive: 29.1 µM [rising, single point] |
| O=C(NCc1nnc(SCc2ccc(F)cc2)n1-c1ccccc1)C12CC3CC(CC(C3)C1)C2 | inconclusive: 29.1 µM [cytotoxic, single point] |
| Cc1cccc(Nc2nc(C)nc3c2oc2ccccc23)c1 | inconclusive: 25.9 µM [cytotoxic, single point] |
| O=C(/C=C/c1ccc2ccccc2n1)N1CCN(S(=O)(=O)c2ccccc2F)CC1 | inconclusive: 20.6 µM [cytotoxic, single point] |
| C(=N\Nc1ncnc2sc3c(c12)CCC3)/c1ccncc1 | inconclusive: 32.6 µM [cytotoxic, single point] |
| C=CCN1C(=O)C(=O)N(Cc2nc3ccccc3s2)C1=O | inconclusive: 29.1 µM [rising, single point] |
| Cc1ccc(C(=O)CN(Cc2ccccc2)C2=NCCS2)cc1 | inactive |
| CCC(=O)NC(c1ccc(OC)cc1)c1c(O)ccc2ccccc12 (stereo not drawn) | inconclusive: 29.1 µM [cytotoxic, single point] |
| COCCN(CC(=O)Nc1cccc(C)c1C)C(=O)Cc1ccsc1 | inactive |
| O=C(Nc1ccc(S(=O)(=O)Nc2ccccc2)cc1)c1ccc(CN2CCOCC2)cc1 | inconclusive: 4.61 µM [cytotoxic, full curve, poor fit] |

Some values from the list.
Entry for `O=C(Nc1ccccc1)c1cn(CCBr)cn1` under Potency: inactive
Entry for `O=C(/C(N=Nc1cccc(C(F)(F)F)c1)=C(/O)c1cccs1)C(F)(F)F` under Potency: inconclusive: 25.9 µM [cytotoxic, single point]

Following part:

| SMILES | Potency |
| --- | --- |
| CCOP(=O)(OCC)C(NC(=O)Nc1c(C)cc(C)cc1C)c1ccccc1 (stereo not drawn) | inconclusive: 0.411 µM [rising, full curve, poor fit] |
| COc1ccc(C2CC(=O)c3c([nH]c(C(=O)OC4CCCCCC4)c3C)C2)cc1 (stereo not drawn) | inactive |
| O=C(CN1CCN(Cc2ccc(Cl)cc2)C1=O)NCCCN1CCN(c2ccc(F)cc2)CC1 | inconclusive: 12.6 µM [cytotoxic, single point] |
| COC(=O)c1ccc(/C=C2/SC(=S)N(CCC(=O)NCCCN3CCOCC3)C2=O)cc1 | inactive |
| O=C(CCN1C(=O)/C(=C/c2ccccc2Cl)SC1=S)NCCCN1CCOCC1 | active: 14.6 µM |
| S=c1[nH]c2ncccc2o1 | inconclusive: 20.6 µM [cytotoxic, single point] |
| CCCCN(C)C(=O)c1nc2ccccn2c1CN1CCC[C@H]1C(=O)OC | inactive |
| CCCNc1nc(Nc2ccc(C)cc2)nc(N2CCCC2)n1 | inconclusive: 25.9 µM [cytotoxic, partial curve, poor fit] |
| COc1ccc(C(=O)NCc2ccc(-c3nc4ccccc4s3)cc2)cc1 | inconclusive: 0.366 µM [cytotoxic, full curve] |
| Cc1cc(=O)[nH]c(SCC(=O)NN(c2ccccc2)c2ccccc2)n1 | inconclusive: 29.1 µM [cytotoxic, single point] |
| Cn1c(NC(=O)c2ccc(F)cc2)nc2ccccc21 | inconclusive: 29.1 µM [cytotoxic, single point] |
| COc1cccc(NS(=O)(=O)c2ccc3[nH]cc(C(=O)NC4CC4)c(=O)c3c2)c1 | inconclusive: 20.6 µM [cytotoxic, partial curve, poor fit] |
| COc1ccc(S(=O)(=O)N2CCOCC2)cc1NC(=O)CCc1cc(OC)c(OC)c(OC)c1 | inconclusive: 6.51 µM [rising, partial curve, poor fit] |
| COc1ccc(Cl)cc1-c1cc(C(=O)Nc2ccccc2)[nH]n1 | inactive |
| CCn1cc(S(=O)(=O)N2CCN(c3ccc(Cl)cc3)CC2)cn1 | inconclusive: 18.4 µM [cytotoxic, single point] |
| CCCN1CCC(=O)N(CCSc2ccc(OC)cc2)CC1 | inconclusive: 1.84 µM [cytotoxic, full curve] |
| O=[N+]([O-])c1ccccc1S(=O)(=O)n1nnc2ccccc21 | inconclusive: 1.3 µM [cytotoxic, partial curve, poor fit] |
| CCOc1ccccc1CNC(=O)Cn1ccc2cc(S(=O)(=O)N3CCCCCC3)ccc21 | inconclusive: 29.1 µM [cytotoxic, single point] |
| O=C(CN1C(=O)c2ccccc2S1(=O)=O)c1ccc(F)cc1 | inactive |
| COc1ccc(NC(=O)/C(C#N)=C\c2cc(C)n(-c3ccc4c(c3)OCO4)c2C)cc1 | inconclusive: 2.59 µM [cytotoxic, full curve, poor fit] |
| COC(=O)c1ccc2c(c1)C(C)(C)C(/C=C/c1ccc(O)cc1)=[N+]2C | inconclusive: 4.47 µM [cytotoxic, full curve, poor fit] |

Source: PubChem BioAssay AID1347075 (National Center for Advancing Translational Sciences (NCATS), 2019)
